Experimental data: paper PMC9592637, “Functional characterization and transcriptional repression by Lacticaseibacillus paracasei DinJ-YafQ” (Applied Microbiology and Biotechnology, 2022)
For some of these results: The exact form of at least one protein or probe is not confirmed. For some of these results: At least one verdict was read from the data and is not stated in words by the source.

Key:
[1] = system: RNA polymerase sigma-70 holoenzyme (Escherichia coli); assay: EMSA; settings: 200 nM RNAP, 5 mM Mg2+, 37 C, not displaced by DinJ-YafQ; EMSA: 2 nM DNA, 128 ng salmon sperm DNA in 10 uL, 50 mM Tris-HCl pH 7.5, 50 mM KCl, 5% glycerol, room temperature 10 min, 6% native PAGE in TBE; commercial protein; label: DY682 on both primers; probe letters rebuilt from the primers and the genome
DinJ + YafQ_pa4366 [2] = assay: EMSA; settings: KDapp, Hill n 2.4 ± 0.2, salmon sperm DNA competitor; EMSA: 2 nM DNA, 128 ng salmon sperm DNA in 10 uL, 50 mM Tris-HCl pH 7.5, 50 mM KCl, 5% glycerol, room temperature 10 min, 6% native PAGE in TBE; recombinant protein; protein details: N-terminal His6 (pET28b),none (pET11b); label: DY682 on both primers; probe letters rebuilt from the primers and the genome
[3] = system: DinJ R13A (Lacticaseibacillus paracasei 4366); assay: EMSA; settings: complete loss of binding up to 1.5 uM; EMSA: 2 nM DNA, 128 ng salmon sperm DNA in 10 uL, 50 mM Tris-HCl pH 7.5, 50 mM KCl, 5% glycerol, room temperature 10 min, 6% native PAGE in TBE; recombinant protein; residues 1-89; protein details: N-terminal His6 (pET28b); label: DY682 on both primers; probe letters rebuilt from the primers and the genome
DinJ + YafQ_pa4366 [4] = assay: competition with a labelled probe; settings: versus 200 nM RNAP, RNAP band disappears with increasing DinJ-YafQ, 5 mM Mg2+; EMSA: 2 nM DNA, 128 ng salmon sperm DNA in 10 uL, 50 mM Tris-HCl pH 7.5, 50 mM KCl, 5% glycerol, room temperature 10 min, 6% native PAGE in TBE; recombinant protein; protein details: N-terminal His6 (pET28b),none (pET11b); label: DY682 on both primers; probe letters rebuilt from the primers and the genome

Sequence	binding result [1]	Kd (DinJ + YafQ_pa4366 [2])	Kd [3]	binding result (DinJ + YafQ_pa4366 [4])
CGTCCTCAAGCTGCTCTTGTGTTAATGGTTTCTTTTTTGTGCTCATACGTTAAATCTATCACCGCAAGGGATAAATATCTAACACCGTGCGTGTTGACTATTTTACCTCTGGCGGTGATAATGGTTGCATGTACTAAGGAGGTTGTATGGAACAACGCATAACCCTGAAAGATTATGCAATGCGCTTTGGGCAAAC (double strand) [196-bp lambda PR promoter fragment]	binds	–	–	–
GATCAACACGAATATTCAAGCGAGTTTCTTTCTTTGTGGCTGCCATTGCTAACCACTCCTTCCTATCTAACAACCTAATTATATCACGAATTATCCCAATGTAAACACAGCGGGATAACATCATGTGAGATGAATTCAACCGGATTTCTGGCTTTTTCTTCGCACAAATGGAAGCGTAACTGCCATCAGACGTT (double strand) [194-bp dinJ-yafQ promoter fragment]	–	44 nM	> 1500 nM	binds
